These are yes or no findings as the source states them, for the method shown. In cells and extracts the contact can be indirect. Some results given as binding are weak or reduced against the parent protein; the word gives no strength.
Experiments:
[1] = target: Flag-tagged HPV8 E7 (pCMV-Flag2-HPV8 E7) (human papillomavirus type 8) (UniProt P06430); experiment: co-IP; C33A cells co-transfected with Flag-HPV8 E7 or deletion mutants and C/EBPβ; 800 µl extract precipitated with Flag M2 agarose, washed with PBS with 0.5 M NaCl, 0.1% IGEPAL CA-630, 1 mM EDTA pH 8.0; Western blot with anti-C/EBPβ
[2] = target: Flag-HPV8 E7Δ1-37 (human papillomavirus type 8) (UniProt P06430); experiment: as above
[3] = target: Flag-HPV8 E7Δ1-15 (human papillomavirus type 8) (UniProt P06430); experiment: as above
[4] = target: Flag-HPV8 E7Δ79-83 (human papillomavirus type 8) (UniProt P06430); experiment: as above
[5] = target: GST-HPV8 E7 (in pGEX-2T) (human papillomavirus type 8) (UniProt P06430); experiment: pull-down; data not shown; GST-HPV8 E7 or GST incubated with cellular extracts of C33A cells transfected with C/EBPβ and precipitated by glutathione Sepharose 4B; only the target purified
[6] = target: GST-C/EBPβ fusion protein (human (from the printed accession)) (UniProt P17676); experiment: pull-down; GST fusion proteins incubated with in vitro translated 35S-labelled HPV8 E7 and precipitated by glutathione Sepharose 4B; SDS-PAGE and autoradiography; only the target purified
[7] = target: GST-C/EBPα fusion protein (UniProt P49715); experiment: as above

The chains behind the UniProt entries cited, without tags or fusion partners. Where a name states a change or a piece, a line headed by the entry shows the natural chain unless it says otherwise.
UniProt P17676: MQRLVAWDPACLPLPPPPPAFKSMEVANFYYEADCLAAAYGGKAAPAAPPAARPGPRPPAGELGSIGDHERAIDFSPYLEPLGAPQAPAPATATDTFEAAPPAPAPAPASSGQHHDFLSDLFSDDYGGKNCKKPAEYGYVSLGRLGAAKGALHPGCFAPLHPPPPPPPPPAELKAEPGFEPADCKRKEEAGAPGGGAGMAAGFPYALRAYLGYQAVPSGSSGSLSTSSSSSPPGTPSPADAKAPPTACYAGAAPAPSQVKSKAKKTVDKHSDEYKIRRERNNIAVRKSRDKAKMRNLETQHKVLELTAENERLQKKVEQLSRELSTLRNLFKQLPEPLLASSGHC
UniProt P49715: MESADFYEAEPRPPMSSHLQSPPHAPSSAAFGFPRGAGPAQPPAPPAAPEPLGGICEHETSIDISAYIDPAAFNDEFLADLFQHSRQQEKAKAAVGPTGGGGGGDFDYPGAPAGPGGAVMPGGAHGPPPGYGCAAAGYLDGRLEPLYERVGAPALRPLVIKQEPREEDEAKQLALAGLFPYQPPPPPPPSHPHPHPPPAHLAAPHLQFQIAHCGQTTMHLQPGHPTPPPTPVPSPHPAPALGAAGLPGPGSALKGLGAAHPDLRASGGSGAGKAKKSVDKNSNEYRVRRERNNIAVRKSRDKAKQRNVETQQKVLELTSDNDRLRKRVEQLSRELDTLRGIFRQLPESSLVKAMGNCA

Measured: binding

C/EBPβ expressed from the C/EBPβ expression vector (pcDNA3.1+) in C33A cells (from UniProt P17676-1 1-345)
not listed: [6] | [7]
binds: all other assays above

HPV8 E7 protein, in vitro translated and 35S-labelled (from UniProt P06430 1-103)
binds: [6] | [7]
